At least one peptide structure holds a part that was inferred or is arguable (an end, a ring closure or a residue). Marks after values point to notes of the source that are not given here.
How the values were obtained:
[1] = tested on: corneal epithelium; experiment: Action on corneal epithelium migration (in vitro), corneal organ culture system; assay type: cell-based; settings: rabbit corneal blocks incubated 20 hours in Medium-199 with test compound, 51.2-512.3 nM (FIG. 1), vs control
[2] = tested on: rabbit corneal wound model; experiment: Corneal wound healing promotion action 1 (in vivo), wound of approximately 6 mm; settings: for Healing ratio (%): 30 μl instillation
Description: Using a male Japanese white rabbit, a wound of approximately 6 mm in diameter was produced in the cornea by inducing corneal epithelial abrasion in accordance with the method of Cintron et al. (Ophthalmic Res., 11, pp. 90-96 (1979)). The wound area was measured using the fluorescein-stained area as an index. The effects of the test compound on corneal wound healing were examined.
The eye drops containing the respective concentrations of the test compound were instilled (30 μl at a time) at 0, 3, 6, 9, 12, 18, 24, 27, 30, 33, 36, 42, and 48 hours after inducing corneal epithelial abrasion. In measuring the wound area, fluorescein staining was carried out and a photograph of the cornea was measured. The fluorescein-stained area of the photographed cornea was computed using an image analysis processing system.
(§1) In Tables 1 and 2, the respective values indicate the mean value±standard deviation (n=6). Statistical analysis was carried out using Dunnett's multiple comparison with respect to PBS with the area of the corneal wound portion immediately after (0 hours after) corneal epithelial abrasion being set to 100% (*p<0.05, **p<0.01; vs. control).

[3] = tested on: rabbit corneal wound model; experiment: Corneal wound healing promotion action 2 (in vivo), wound of approximately 8 mm; settings: for Healing ratio (%): 0.04% eye drop, 25 μl instillation
Description: Using the same method as (2) above, corneal epithelial abrasion was induced in a Japanese white rabbit to produce a wound of approximately 8 mm in diameter in the cornea. The wound area was measured using the fluorescein-stained area as an index to examine the effects on corneal wound healing.
The eye drops containing the respective concentrations of the test compound were instilled (25 μl at a time) at 0, 6, 12, 18, 24, 30, 36, 42, 48, and 54 hours after induction corneal epithelial abrasion. In measuring the wound area, fluorescein staining was carried out and a photograph of the cornea was measured. The fluorescein-stained area of the photographed cornea was computed using an image analysis processing system.
as §1, with “Tables 3” for “Tables 1”, “and 4,” for “and 2,”, “to physiological saline” for “to PBS”

Ac-PHSRN-NH2 [PHSRN (SEQ ID NO: 1), Ac-Pro-His-Ser-Arg-Asn-NH2]
migration of corneal epithelium (migrating length of the epithelial cell layer) [1]: significant promotion of the migration of corneal epithelium
Healing ratio (%) ([2]; 2 μM eye drop, 0 hr (baseline)): 0%
Healing ratio (%) ([2]; 2 μM eye drop, 6 hr): 9.66 ± 2.21* %
Healing ratio (%) ([2]; 2 μM eye drop, 12 hr): 26.71 ± 2.62** %
Healing ratio (%) ([2]; 2 μM eye drop, 24 hr): 61.91 ± 3.08%
Healing ratio (%) ([2]; 2 μM eye drop, 36 hr): 88.08 ± 4.03%
Healing ratio (%) ([2]; 2 μM eye drop, 48 hr): 99.14 ± 1.90%
Healing ratio (%) ([2]; 20 μM eye drop, 0 hr (baseline)): 0%
Healing ratio (%) ([2]; 20 μM eye drop, 6 hr): 10.73 ± 3.21** %
Healing ratio (%) ([2]; 20 μM eye drop, 12 hr): 28.01 ± 1.92** %
Healing ratio (%) ([2]; 20 μM eye drop, 24 hr): 64.07 ± 3.98* %
Healing ratio (%) ([2]; 20 μM eye drop, 36 hr): 89.09 ± 6.42%
Healing ratio (%) ([2]; 20 μM eye drop, 48 hr): 99.15 ± 1.52%
Healing ratio (%) ([2]; 200 μM eye drop, 0 hr (baseline)): 0%
Healing ratio (%) ([2]; 200 μM eye drop, 6 hr): 11.06 ± 3.50** %
Healing ratio (%) ([2]; 200 μM eye drop, 12 hr): 28.69 ± 4.10** %
Healing ratio (%) ([2]; 200 μM eye drop, 24 hr): 67.70 ± 5.37** %
Healing ratio (%) ([2]; 200 μM eye drop, 36 hr): 94.97 ± 4.63* %
Healing ratio (%) ([2]; 200 μM eye drop, 48 hr): 100.00 ± 0.00%
Healing ratio (%) ([2]; 2000 μM eye drop, 0 hr (baseline)): 0%
Healing ratio (%) ([2]; 2000 μM eye drop, 6 hr): 11.15 ± 1.25** %
Healing ratio (%) ([2]; 2000 μM eye drop, 12 hr): 28.99 ± 2.65** %
Healing ratio (%) ([2]; 2000 μM eye drop, 24 hr): 69.49 ± 3.17** %
Healing ratio (%) ([2]; 2000 μM eye drop, 36 hr): 95.39 ± 3.06* %
Healing ratio (%) ([2]; 2000 μM eye drop, 48 hr): 100.00 ± 0.00%
promotion of wound healing (in words) ([2]; instillation, Tables 1 and 2, vs PBS control): significant promotion of wound healing
Healing ratio (%) ([3]; 0 hr (baseline)): 0%
Healing ratio (%) ([3]; 12 hr): 13.57 ± 3.74* %
Healing ratio (%) ([3]; 18 hr): 29.45 ± 3.29** %
Healing ratio (%) ([3]; 24 hr): 58.71 ± 6.32** %
Healing ratio (%) ([3]; 30 hr): 58.71 ± 6.32** %
Healing ratio (%) ([3]; 36 hr): 70.29 ± 8.38%
Healing ratio (%) ([3]; 48 hr): 88.27 ± 8.74%
Healing ratio (%) ([3]; 54 hr): 94.24 ± 6.62%
Healing ratio (%) ([3]; 72 hr): 98.93 ± 2.16%
promotion of wound healing (in words) ([3]; instillation, Tables 3 and 4, vs physiological saline control): significant promotion of wound healing

Reference: patent US20100099629A1, “OPHTHALMOLOGICAL COMPOSITION” (Nihon Tenganyaku Kenkyusho Co., LTD., priority 2002, published 2010)
